PubChem BioAssay AID1053208 – Peter MacCallum Cancer Centre | 2014

Aim: 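Genes whose silencing cuts survival of bone tumour cells only with doxorubicin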 (primary screen)
System: mouse osteosarcoma cells, early-passage culture from an engineered mouse model of fibroblastic bone tumour
Reagent: siRNA pool against mouse genes, 40 nM
Duration: about 120 h (48 h before drug, then 72 h with drug)
Conditions: doxorubicin 100 nM for 72 h, roughly 30-40% inhibitory dose
Detection: 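Luminescent ATP signal taken as viability with or without 100 nM doxorubicin for 72 h; mean of two wells set against non-targeting siRNA and turned into robust z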
Scale: viability z-score with doxorubicin and doxorubicin viability vs non-targeting: higher = more viable cells under doxorubicin; viability z-score without drug: higher = more viable cells with knock-down alone; z-score of drug to no-drug ratio: higher = less drug sensitisation by knock-down
Hit rule: 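a pool counts as active when its viability z-score with doxorubicin is -2 or below and its z-score without drug lies between -2 and 2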
Here is one part, drawn at random, of about 17,000 deposited reagents. 788 of all reagents (4.7%) were called active. 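Calls rest on z-score classes alone; an extra cut-off of viability at most 70% of control was not applied to them.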

no.	gene	combined z-score class	viability z-score with doxorubicin	viability z-score without drug	z-score of drug to no-drug ratio	doxorubicin viability vs non-targeting	Call
1	Ptprz1 (protein tyrosine phosphatase receptor type Z, polypeptide 1)	no change with or without drug	-1.35	-0.51	-1.01	0.82	inactive
2	Vmn1r64 (vomeronasal 1 receptor 64)	low cell count with doxorubicin only	-2.14	-1.01	-1.57	0.75	active
3	Aftph (aftiphilin)	no change with or without drug	-0.45	-0.17	-0.22	0.9	inactive
4	Tsn (translin)	no change with or without drug	-0.34	-0.34	0	0.91	inactive
5	Or1n1b (olfactory receptor family 1 subfamily N member 1B)	no change with or without drug	0	-1.52	1.24	0.94	inactive
6	Cyp2b10 (cytochrome P450, family 2, subfamily b, polypeptide 10)	no change with or without drug	0.22	1.01	-0.34	0.96	inactive
7	Dpysl2 (dihydropyrimidinase-like 2)	no change with or without drug	0.34	0.84	-0.11	0.97	inactive
8	Acp2 (acid phosphatase 2, lysosomal)	no change with or without drug	-0.11	-1.18	0.9	0.93	inactive
9	Krit1 (KRIT1, ankyrin repeat containing)	no change with or without drug	0.22	-0.17	0.45	0.96	inactive
10	Adcy9 (adenylate cyclase 9)	no change with or without drug	1.35	0	1.57	1.06	inactive
11	4930578I06Rik (RIKEN cDNA 4930578I06 gene)	no change with or without drug	-0.9	-1.18	0	0.86	inactive
12	Syngr2 (synaptogyrin 2)	no change with or without drug	-1.69	-1.85	-0.45	0.79	inactive
13	Atp6v0d2 (ATPase, H+ transporting, lysosomal V0 subunit D2)	no change with or without drug	1.57	0.17	1.69	1.08	inactive
14	Ly6g5b (lymphocyte antigen 6 family member G5B)	no change with or without drug	-0.45	-0.17	-0.22	0.9	inactive
15	Col19a1 (collagen, type XIX, alpha 1)	no change with or without drug	1.01	0.51	0.79	1.03	inactive
16	Dscam (DS cell adhesion molecule)	no change with or without drug	-1.12	0.84	-1.57	0.84	inactive
17	Klhdc4 (kelch domain containing 4)	low cell count with doxorubicin only	-2.92	0.34	-3.15	0.68	active
18	Gnao1 (guanine nucleotide binding protein, alpha O)	low cell count with doxorubicin only	-2.25	0.67	-2.59	0.74	active
19	Nkain1 (Na+/K+ transporting ATPase interacting 1)	no change with or without drug	0.22	0.84	-0.22	0.96	inactive
20	Tmod3 (tropomodulin 3)	no change with or without drug	-0.45	-0.17	-0.22	0.9	inactive
21	Snrnp70 (small nuclear ribonucleoprotein 70 (U1))	low cell count with and without drug	-3.93	-3.54	-2.02	0.59	inactive
22	Acat3 (acetyl-Coenzyme A acetyltransferase 3)	no change with or without drug	0.67	-0.84	1.46	1	inactive
23	Crip3 (cysteine-rich protein 3)	no change with or without drug	-0.11	0.67	-0.45	0.93	inactive
24	Pak2 (p21 (RAC1) activated kinase 2)	no change with or without drug	0.67	0.34	0.56	1	inactive
25	Plekha3 (pleckstrin homology domain containing A3)	no change with or without drug	-1.91	-0.84	-1.35	0.77	inactive
26	Zdhhc16 (zinc finger, DHHC domain containing 16)	no change with or without drug	0.45	1.18	-0.22	0.98	inactive
27	Wscd2 (WSC domain containing 2)	no change with or without drug	0.34	0.51	0.11	0.97	inactive
28	Hoxd8 (homeobox D8)	no change with or without drug	-0.34	-1.69	1.01	0.91	inactive
29	Psen1 (presenilin 1)	no change with or without drug	0.45	0.84	0	0.98	inactive
30	Nox4 (NADPH oxidase 4)	no change with or without drug	-0.45	-0.51	0	0.9	inactive
31	Cer1 (cerberus 1, DAN family BMP antagonist)	no change with or without drug	-1.69	0.17	-1.8	0.79	inactive
32	Inpp5b (inositol polyphosphate-5-phosphatase B)	no change with or without drug	1.01	0	1.12	1.03	inactive
33	A330035P11Rik (RIKEN cDNA A330035P11 gene)	no change with or without drug	-0.11	-0.51	0.34	0.93	inactive
34	Lrrc49 (leucine rich repeat containing 49)	low cell count without drug only	1.24	-2.19	3.37	1.05	inactive
35	Sec61b (SEC61 translocon subunit beta)	no change with or without drug	0	-1.18	1.01	0.94	inactive
36	Btg2 (BTG anti-proliferation factor 2)	no change with or without drug	-0.9	-0.51	-0.56	0.86	inactive
37	Dhx34 (DExH-box helicase 34)	no change with or without drug	1.57	0.84	1.12	1.08	inactive
38	Or11a4 (olfactory receptor family 11 subfamily A member 4)	no change with or without drug	-1.57	-1.52	-0.56	0.8	inactive
39	Pde6h (phosphodiesterase 6H, cGMP-specific, cone, gamma)	no change with or without drug	-0.22	-0.51	0.22	0.92	inactive
40	Elavl1 (ELAV like RNA binding protein 1)	no change with or without drug	0.45	0.84	0	0.98	inactive
41	Nat1 (N-acetyl transferase 1)	no change with or without drug	1.35	0	1.57	1.06	inactive
42	Irf8 (interferon regulatory factor 8)	no change with or without drug	-0.22	-1.18	0.79	0.92	inactive
43	Or4k15 (olfactory receptor family 4 subfamily K member 15)	no change with or without drug	-0.67	-0.84	0	0.88	inactive
44	Fads3 (fatty acid desaturase 3)	no change with or without drug	0.56	0.84	0.11	0.99	inactive
45	Snai2 (snail family zinc finger 2)	low cell count with doxorubicin only	-2.02	-1.18	-1.35	0.76	active
46	Arfgap2 (ARF GTPase activating protein 2)	low cell count with doxorubicin only	-2.7	0.67	-3.04	0.7	active
47	Ssh3 (slingshot protein phosphatase 3)	no change with or without drug	0.67	-0.17	0.9	1	inactive
48	Or8k36 (olfactory receptor family 8 subfamily K member 36)	no change with or without drug	-1.01	-1.18	-0.11	0.85	inactive
49	Map1b (microtubule-associated protein 1B)	no change with or without drug	1.35	0.34	1.24	1.06	inactive
50	Sdk1 (sidekick cell adhesion molecule 1)	no change with or without drug	-0.56	-1.85	0.9	0.89	inactive

3 consecutive entries already listed, for reference:
no.	gene	combined z-score class	viability z-score with doxorubicin	viability z-score without drug	z-score of drug to no-drug ratio	doxorubicin viability vs non-targeting	Call
6	Cyp2b10 (cytochrome P450, family 2, subfamily b, polypeptide 10)	no change with or without drug	0.22	1.01	-0.34	0.96	inactive
7	Dpysl2 (dihydropyrimidinase-like 2)	no change with or without drug	0.34	0.84	-0.11	0.97	inactive
8	Acp2 (acid phosphatase 2, lysosomal)	no change with or without drug	-0.11	-1.18	0.9	0.93	inactive
